This passage reports binding results from publication PMC6692047, “Ddc2^ATRIP promotes Mec1^ATR activation at RPA-ssDNA tracts” (PLoS Genetics, 2019).

Sequences of proteins named here, by UniProt entry; tags and fusion partners are left off.
UniProt P38111: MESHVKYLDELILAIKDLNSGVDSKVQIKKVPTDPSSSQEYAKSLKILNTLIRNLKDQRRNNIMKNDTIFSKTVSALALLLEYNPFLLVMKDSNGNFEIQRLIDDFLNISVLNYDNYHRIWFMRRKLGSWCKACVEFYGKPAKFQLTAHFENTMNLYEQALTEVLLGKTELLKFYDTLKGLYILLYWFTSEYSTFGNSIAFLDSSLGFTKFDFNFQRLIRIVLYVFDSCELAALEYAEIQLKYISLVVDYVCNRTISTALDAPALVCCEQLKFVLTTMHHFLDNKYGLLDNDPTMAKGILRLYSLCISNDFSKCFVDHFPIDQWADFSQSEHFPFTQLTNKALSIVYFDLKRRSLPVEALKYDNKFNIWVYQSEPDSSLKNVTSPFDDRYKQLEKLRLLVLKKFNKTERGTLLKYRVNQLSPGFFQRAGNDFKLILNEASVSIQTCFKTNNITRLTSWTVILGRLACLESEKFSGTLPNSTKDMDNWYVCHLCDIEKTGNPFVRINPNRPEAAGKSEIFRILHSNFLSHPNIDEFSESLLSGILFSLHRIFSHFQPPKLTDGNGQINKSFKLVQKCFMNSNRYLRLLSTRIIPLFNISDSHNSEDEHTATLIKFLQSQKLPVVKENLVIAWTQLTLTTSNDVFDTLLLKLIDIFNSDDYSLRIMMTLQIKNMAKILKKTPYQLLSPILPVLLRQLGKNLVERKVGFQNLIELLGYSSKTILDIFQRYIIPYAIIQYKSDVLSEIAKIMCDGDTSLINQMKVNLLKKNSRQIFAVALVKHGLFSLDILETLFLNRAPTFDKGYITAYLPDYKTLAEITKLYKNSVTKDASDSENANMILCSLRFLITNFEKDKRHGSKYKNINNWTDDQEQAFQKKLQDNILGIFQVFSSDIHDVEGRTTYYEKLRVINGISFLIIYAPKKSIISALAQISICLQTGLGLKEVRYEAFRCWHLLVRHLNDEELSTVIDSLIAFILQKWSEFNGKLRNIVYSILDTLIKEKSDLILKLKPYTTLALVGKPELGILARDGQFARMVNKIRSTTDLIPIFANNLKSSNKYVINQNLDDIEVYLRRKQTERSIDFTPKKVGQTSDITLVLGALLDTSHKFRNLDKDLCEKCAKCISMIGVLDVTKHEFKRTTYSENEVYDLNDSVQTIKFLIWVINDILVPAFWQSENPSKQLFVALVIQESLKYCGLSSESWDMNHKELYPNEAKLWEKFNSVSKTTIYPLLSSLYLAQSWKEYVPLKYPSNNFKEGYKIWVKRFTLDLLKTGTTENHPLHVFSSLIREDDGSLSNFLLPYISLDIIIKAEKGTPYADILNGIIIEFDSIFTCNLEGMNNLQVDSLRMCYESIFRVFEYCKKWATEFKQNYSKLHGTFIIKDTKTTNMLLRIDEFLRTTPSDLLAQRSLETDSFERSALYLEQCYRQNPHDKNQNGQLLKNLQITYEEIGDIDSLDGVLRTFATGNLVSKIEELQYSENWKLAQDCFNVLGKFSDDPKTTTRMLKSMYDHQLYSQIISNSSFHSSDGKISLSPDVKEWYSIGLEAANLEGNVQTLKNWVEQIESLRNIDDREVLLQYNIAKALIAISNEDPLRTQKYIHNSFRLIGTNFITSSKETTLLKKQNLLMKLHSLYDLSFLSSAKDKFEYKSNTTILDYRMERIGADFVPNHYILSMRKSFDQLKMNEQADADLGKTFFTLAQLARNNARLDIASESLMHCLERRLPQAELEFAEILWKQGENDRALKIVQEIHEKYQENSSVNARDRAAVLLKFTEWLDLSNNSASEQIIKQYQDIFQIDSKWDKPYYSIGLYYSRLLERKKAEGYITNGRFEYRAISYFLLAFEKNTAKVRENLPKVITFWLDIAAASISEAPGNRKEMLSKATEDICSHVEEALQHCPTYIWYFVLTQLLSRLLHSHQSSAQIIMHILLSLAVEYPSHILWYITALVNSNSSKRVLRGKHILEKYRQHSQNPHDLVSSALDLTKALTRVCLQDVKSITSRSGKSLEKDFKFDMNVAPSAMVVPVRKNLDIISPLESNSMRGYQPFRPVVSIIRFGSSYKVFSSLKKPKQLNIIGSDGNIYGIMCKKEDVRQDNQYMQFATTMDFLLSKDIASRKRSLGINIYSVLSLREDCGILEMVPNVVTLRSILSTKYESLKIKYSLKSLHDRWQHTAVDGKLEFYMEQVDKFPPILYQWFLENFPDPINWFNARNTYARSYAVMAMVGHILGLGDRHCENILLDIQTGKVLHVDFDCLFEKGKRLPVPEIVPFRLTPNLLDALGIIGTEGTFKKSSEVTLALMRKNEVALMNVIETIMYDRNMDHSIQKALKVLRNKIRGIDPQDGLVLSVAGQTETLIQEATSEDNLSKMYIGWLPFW

No constants are given. Whether binding was seen depends on the method and setting. Some binding calls cover weakened binding; strength is not graded here. Sequences can lack the tags named with a protein.

The target in the experiment is FLAG-tagged Mec1 (budding yeast) (UniProt P38111). In words: two-step affinity co-purification; FLAG-Mec1 and His-HA-Ddc2 (or Ddc2-S4) co-overexpressed in yeast; crude extract on ANTI-FLAG-M2 agarose, washes up to 400 mM NaCl, FLAG-peptide eluate on Ni-NTA agarose, imidazole elution; 4°C; SDS-PAGE with Coomassie.

B1: MBP-Ddc2 (natural protein, budding yeast, UniProt Q04377 1-747, looked up)
chain: MRRETVGEFSSDDDDDILLELGTRPPRFTQIPPSSAALQTQIPTTLEVTTTTLNNKQSKNDNQLVNQLNKAQGEASMLRDKINFLNIEREKEKNIQAVKVNELQVKHLQELAKLKQELQKLEDEKKFLQMEARGKSKREVITNVKPPSTTLSTNTNTITPDSSSVAIEAKPQSPQSKKRKISDNLLKKNMVPLNPNRIIPDETSLFLESILLHQIIGADLSTIEILNRLKLDYITEFKFKNFVIAKGAPIGKSIVSLLLRCKKTLTLDRFIDTLLEDIAVLIKEISVHPNESKLAVPFLVALMYQIVQFRPSATHNLALKDCFLFICDLIRIYHHVLKVPIHESNMNLHVEPQIFQYELIDYLIISYSFDLLEGILRVLQSHPKQTYMEFFDENILKSFEFVYKLALTISYKPMVNVIFSAVEVVNIITSIILNMDNSSDLKSLISGSWWRDCITRLYALLEKEIKSGDVYNENVDTTTLHMSKYHDFFGLIRNIGDNELGGLISKLIYTDRLQSVPRVISKEDIGMDSDKFTAPIIGYKMEKWLLKLKDEVLNIFENLLMIYGDDATIVNGEMLIHSSKFLSREQALMIERYVGQDSPNLDLRCHLIEHTLTIIYRLWKDHFKQLREEQIKQVESQLIMSLWRFLVCQTETVTANEREMRDHRHLVDSLHDLTIKDQASYYEDAFEDLPEYIEEELKMQLNKRTGRIMQVKYDEKFQEMARTILESKSFDLTTLEEADSLYISMGL
notes: Ddc2 (ATRIP homolog), budding yeast; also called MBP-fused Ddc2; pMAL-Ddc2; source: E. coli Rosetta, purified (amylose resin)
On to B1, for which the binding result is on record as “binds”.

B2: MBP-Ddc2-S4 (natural protein, budding yeast, UniProt Q04377 1-747, looked up)
chain: MRRETVGEFSSDDDDDILLELGTRPPRFTQIPPSSAALQTQIPTTLEVTTTTLNNKQSKNDNQLVNQLNKAQGEASMLRDKINFLNIEREKEKNIQAVKVNELQVKHLQELAKLKQELQKLEDEKKFLQMEARGKSKREVITNVKPPSTTLSTNTNTITPDSSSVAIEAKPQSPQSKKRKISDNLLKKNMVPLNPNRIIPDETSLFLESILLHQIIGADLSTIEILNRLKLDYITEFKFKNFVIAKGAPIGKSIVSLLLRCKETLTLDRFIDTLLEDIAVLIKEISVHPNESKLAVPFLVALMYQIVQFRPSATHNLALKDCFLFICDLIRIYHHVLKVPIHESNMNLHVEPQIFQYELIDYLIISYSFDLLEGILRVLQSYPKQTYMEFFDENILKSFEFVYKLALTISYKPMVNVIFSAVEVVNIITSIILNMDNSSDLKSLISGSWWRDCITRLYALLEKEIKSGDVYNENVDTTTLHMSKYHDFFGLIRNIGDNELGGLISKLIYTDRLQSVPRVISKEDIGMDSDKFTAPIIGYKMEKWLLKLKDEVLNIFENLLMIYGDDATIVNGEMLIHSSKFLSREQALMIERYVGQDSPNLDLRCHLIEHTLTIIYRLWKDHFKQLREEQIKQVESQLIMSLWRFLVCQTETVTANEREMRDHRHLVDSLHDLTIKDQASYYEDAFEDLPEYIEEELKMQLNKRTGRIMQVKYDEKFQEMARTILESKSFDLTTLEEADSLYISMGL
notes: Ddc2 (ATRIP homolog), budding yeast, with the two ddc2-S4 substitutions; also called MBP-fused Ddc2-S4; pMAL-Ddc2-S4; source: E. coli Rosetta, purified (amylose resin)
Consider B2, for which the binding entry is “binds”.
